Reference: the supplement of paper PMC10331698
± gives the standard deviation of the averaged measurements. Most values lie at the level of the controls, where differences are scatter.

Legend:
Assay in all cases: level (log10 ratio to DMSO vehicle control); higher = higher biomarker level / cell amount than vehicle control
[1] = compound: O=C(O)C(F)(F)OC(F)(F)C(F)(F)OC(F)(F)C(F)(F)C(F)(F)C(F)(F)F [Perfluoro-3,6-dioxadecanoic acid]; conditions: 2200 nM; in DMSO
Procedure: (§1)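 BioMAP Diversity Plus panel of 12 human primary cell co-culture systems (3C, 4H, LPS, SAg, BT, BF4T, BE3C, CASM3C, HDF3CGF, KF3CT, MyoF, Mphg). Compounds were added 1 h before stimulation and left for 24 h (MyoF 48 h; BT 72 h for soluble read-outs or 6 d for IgG). Biomarkers were read by ELISA, cytotoxicity by SRB, PBMC viability and proliferation by Alamar Blue. Each well value was divided by the mean of 8 DMSO control wells on the same plate and log10 transformed; duplicate blinded samples were tested at 4 concentrations.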

[2] = compound: FC(F)C(F)(F)COCC1CO1 [((2,2,3,3-Tetrafluoropropoxy)methyl)oxirane]; conditions: 2200 nM; in DMSO
Procedure: as §1

[3] = compound: C=CC(=O)OCC(F)(F)C(F)(F)C(F)(F)C(F)(F)COC(=O)C=C [1H,1H,6H,6H-Perfluorohexane-1,6-diol diacrylate]; conditions: 2200 nM; in DMSO
Procedure: as §1

Perfluorobutanoic acid = compound: O=C(O)C(F)(F)C(F)(F)C(F)(F)F [Perfluorobutanoic acid]; conditions: 2200 nM; in DMSO
Procedure: as §1

Perfluoropropanoic acid = compound: O=C(O)C(F)(F)C(F)(F)F [Perfluoropropanoic acid]; conditions: 2200 nM; in DMSO
Procedure: as §1

[4] = compound: O=C(O)C(F)(F)OC(F)(F)C(F)(F)OC(F)(F)C(=O)O [Perfluoro-3,6-dioxaoctane-1,8-dioic acid]; conditions: 2200 nM; in DMSO
Procedure: as §1

[5] = compound: OCC(F)(F)C(F)(F)C(F)(F)C(F)(F)C(F)(F)C(F)(F)C(F)(F)C(F)(F)C(F)(F)C(F)(F)C(F)(F)F [11:1 Fluorotelomer alcohol]; conditions: in DMSO
Procedure: as §1

[6] = compound: O=C(O)C(F)(F)C(F)(F)OC(F)(F)F [Perfluoro-3-methoxypropanoic acid]; conditions: 2200 nM; in DMSO
Procedure: as §1

[7] = compound: FC(F)(F)C(F)(F)C(F)(F)C(F)(F)C(F)(F)C(F)(F)C(F)(F)CCI [1-Iodo-1H,1H,2H,2H-perfluorononane]; conditions: in DMSO
Procedure: as §1

Perfluorooctanamide = compound: NC(=O)C(F)(F)C(F)(F)C(F)(F)C(F)(F)C(F)(F)C(F)(F)C(F)(F)F [Perfluorooctanamide]; conditions: 2200 nM; in DMSO
Procedure: as §1

[8] = compound: O=C(O)C=CC(F)(C(F)(F)F)C(F)(F)F [3-(Perfluoroisopropyl)-2-propenoic acid]; conditions: in DMSO
Procedure: as §1

[9] = compound: O=S(=O)(Cl)C(F)(F)C(F)(F)C(F)(F)C(F)(F)C(F)(F)C(F)(F)C(F)(F)C(F)(F)F [Perfluoro-1-octanesulfonyl chloride]; conditions: 2200 nM; in DMSO
Procedure: as §1

[10] = compound: OCCC(F)(F)C(F)(F)C(F)(F)C(F)(F)C(F)(F)C(F)(F)C(F)(F)C(F)(F)F [8:2 Fluorotelomer alcohol]; conditions: 2200 nM; in DMSO
Procedure: as §1

[11] = compound: C=C(C)C(=O)OCC(F)(F)C(F)(F)C(F)(F)F [2,2,3,3,4,4,4-Heptafluorobutyl methacrylate]; conditions: 2200 nM; in DMSO
Procedure: as §1

Perfluoroundecanoic acid = compound: O=C(O)C(F)(F)C(F)(F)C(F)(F)C(F)(F)C(F)(F)C(F)(F)C(F)(F)C(F)(F)C(F)(F)C(F)(F)F [Perfluoroundecanoic acid]; conditions: in DMSO
Procedure: as §1

[12] = compound: O=P(O)(O)CCC(F)(F)C(F)(F)C(F)(F)C(F)(F)C(F)(F)C(F)(F)C(F)(F)C(F)(F)F [((Perfluorooctyl)ethyl)phosphonic acid]; conditions: 2200 nM; in DMSO
Procedure: as §1

[13] = compound: O=C(O)C(F)(F)C(F)(F)C(F)(F)C(F)(F)C(F)(F)C(F)(F)C(F)(F)C(F)F [9-H-Perfluorononanoic acid]; conditions: 2200 nM; in DMSO
Procedure: as §1

[14] = compound: FC(F)(F)C(F)(F)C(F)(F)C(F)(F)C(F)(F)C(F)(F)C(F)(F)I [1-Iodopentadecafluoroheptane]; conditions: in DMSO
Procedure: as §1

| Test System | level (log10) [1] | level (log10) [2] | level (log10) [3] | level (log10) (Perfluorobutanoic acid) | level (log10) (Perfluoropropanoic acid) | level (log10) [4] | level (log10) ([5]; 370 nM) | level (log10) ([5]; 1100 nM) | level (log10) ([5]; 3300 nM) | level (log10) ([5]; 10000 nM) | level (log10) [6] | level (log10) ([7]; 740 nM) | level (log10) ([7]; 2200 nM) | level (log10) ([7]; 6700 nM) | level (log10) ([7]; 20000 nM) | level (log10) (Perfluorooctanamide) | level (log10) ([8]; 2200 nM) | level (log10) ([8]; 6700 nM) | level (log10) ([8]; 20000 nM) | level (log10) ([8]; 60000 nM) | level (log10) [9] | level (log10) [10] | level (log10) [11] | level (log10) (Perfluoroundecanoic acid; 740 nM) | level (log10) (Perfluoroundecanoic acid; 2200 nM) | level (log10) [12] | level (log10) [13] | level (log10) ([14]; 740 nM) | level (log10) ([14]; 2200 nM) | level (log10) ([14]; 6700 nM) | level (log10) ([14]; 20000 nM) |
| --- | --- | --- | --- | --- | --- | --- | --- | --- | --- | --- | --- | --- | --- | --- | --- | --- | --- | --- | --- | --- | --- | --- | --- | --- | --- | --- | --- | --- | --- | --- | --- |
| HDF3CGF:CXCL9/MIG | 0.007 ± 0.038 | 0.0035 ± 0.022 | -0.303 ± 0.021 | 0.025 ± 0.02 | -0.0285 ± 0.047 | -0.0045 ± 0.0092 | -0.01 ± 0.0042 | 0.009 | -0.0145 ± 0.00071 | 0.009 ± 0.05 | 0.007 ± 0.0057 | 0.0125 ± 0.011 | -0.0015 ± 0.015 | -0.035 ± 0.0071 | -0.0875 ± 0.049 | -0.011 ± 0.0099 | 0.011 ± 0.014 | 0.017 ± 0.0071 | 0.02 ± 0.011 | 0.011 ± 0.023 | -0.0055 ± 0.0021 | -0.0075 ± 0.03 | -0.009 ± 0.011 | -0.0005 ± 0.032 | 0.001 ± 0.0057 | 0.093 ± 0.016 | -0.0405 ± 0.033 | -0.008 ± 0.027 | -0.011 ± 0.018 | -0.016 ± 0.0042 | 0.0015 ± 0.0064 |
| BF4T:SRB | -0.0045 ± 0.013 | 0.0075 ± 0.016 | 0.0055 ± 0.015 | 0 ± 0.0057 | -0.0055 ± 0.00071 | -0.0055 ± 0.011 | -0.0015 ± 0.0092 | -0.003 ± 0.0014 | -0.0075 ± 0.0064 | 0.001 ± 0.014 | -0.0015 ± 0.021 | -0.003 | -0.005 ± 0.0014 | -0.001 ± 0.0042 | 0.001 ± 0.0042 | 0.0035 ± 0.0092 | 0.0025 ± 0.0078 | -0.008 ± 0.011 | -0.008 ± 0.0099 | 0.006 ± 0.018 | 0.0025 ± 0.005 | 0.005 ± 0.0099 | -0.0005 ± 0.025 | 0.002 ± 0.013 | -0.017 ± 0.0014 | 0.0005 ± 0.0035 | -0.0035 ± 0.005 | -0.004 ± 0.0042 | -0.011 ± 0.0099 | -0.0085 ± 0.0092 | -0.008 ± 0.0014 |
